{"source": "the supplement of paper PMC8728848", "binders": {"B1": {"name": "PX14343F-bfa-562-20-562 (Bacteroides fragilis) (protein)", "chain": "CDDFLDSFPQDTVTNENFWKSKEDADKVLVDIYASLLPKDAIFFDEAMSDNAYLVWDWWGGAQQVANGSYTTSGEIPTNRWNGSYEVIRKCWFLLEGIEKIEDISEQDKNKIIGETYFMLAYNYYVLTSYFGDVPLVTKTLAIPESKQLVRTPKAEVVDYAINKLKEAAVMLEGLSQEKGRVTADACRFLIARMYLYNGDYSNVLETVKLLEGKYQLYREGDTPYEDLFSGVAENSCEVILSVVCDKRVGEIYTSHGGNGIMLLKGITGEDPYRGVTPSGSLVDAYPMADGRLIHEAGSSYDPKKPYEGRDPRFYQSIVYPTGQIKYLDVETGTVKERLYDPEDPTTVPEHQYNYSQPSATGYMWNKYIDYSVYAMNSVWDCTNDIIVFRYADVLLMKAEALLQTKGESAKEEVCNLIDQLRDRCSCGRVHRENYNSKDELMELLKNERRIELANEGLRYMDLIRWKDAEKNTIVTGVGLTGQMYGAYMRKDGVGKDDKTVDVDNTPRRYIETRYFNASKGYLFPIPQKERDLNPNLTQNPNW"}}, "test_in_all_cases": "glycan array binding signal (z-score within array); higher = stronger binding", "settings_in_all_cases": "glycan notation: IUPAC condensed, linker removed", "key": {"[1]": {"molecular_target": "Neu5Ac(a2-6)Gal(b1-4)GlcNAc(b1-2)Man(a1-3)[Man(a1-6)]Man(b1-4)GlcNAc(b1-4)GlcNAc", "how_it_was_run": "(§1)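 Columns mapping to the same glycan were averaged after glycan names were converted to IUPAC-condensed notation. The data come from 3228 arrays in the Consortium for Functional Glycomics database, limited to those with an available protein sequence. Binding is reported as a within-array Z-score averaged across arrays of one protein sequence and across linkers.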"}, "[2]": {"molecular_target": "Neu5Ac(a2-6)Gal(b1-4)GlcNAc(b1-2)Man(a1-3)[Neu5Ac(a2-3)Gal(b1-4)GlcNAc(b1-2)Man(a1-6)]Man(b1-4)GlcNAc(b1-4)GlcNAc", "how_it_was_run": "as §1"}, "[3]": {"molecular_target": "Neu5Ac(a2-6)Gal(b1-4)GlcNAc(b1-2)Man(a1-3)[Neu5Ac(a2-6)Gal(b1-4)GlcNAc(b1-2)Man(a1-6)]Man(b1-4)GlcNAc(b1-4)GlcNAc", "how_it_was_run": "as §1"}, "[4]": {"molecular_target": "Neu5Ac(a2-6)Gal(b1-4)GlcNAc(b1-2)Man(a1-3)[Neu5Ac(a2-6)Gal(b1-4)GlcNAc(b1-2)Man(a1-6)]Man(b1-4)GlcNAc(b1-4)[Fuc(a1-6)]GlcNAc", "how_it_was_run": "as §1"}, "[5]": {"molecular_target": "Neu5Ac(a2-6)Gal(b1-4)GlcNAc(b1-2)Man(a1-6)Man(b1-4)GlcNAc(b1-4)GlcNAc", "how_it_was_run": "as §1"}, "[6]": {"molecular_target": "Neu5Ac(a2-6)Gal(b1-4)GlcNAc(b1-2)Man(a1-6)[Gal(b1-4)GlcNAc(b1-2)Man(a1-3)]Man(b1-4)GlcNAc(b1-4)GlcNAc", "how_it_was_run": "as §1"}, "[7]": {"molecular_target": "Neu5Ac(a2-6)Gal(b1-4)GlcNAc(b1-2)Man(a1-6)[GlcNAc(b1-2)Man(a1-3)]Man(b1-4)GlcNAc(b1-4)GlcNAc", "how_it_was_run": "as §1"}, "[8]": {"molecular_target": "Neu5Ac(a2-6)Gal(b1-4)GlcNAc(b1-2)Man(a1-6)[Man(a1-3)]Man(b1-4)GlcNAc(b1-4)GlcNAc", "how_it_was_run": "as §1"}, "[9]": {"molecular_target": "Neu5Ac(a2-6)Gal(b1-4)GlcNAc(b1-2)[Neu5Ac(a2-6)Gal(b1-4)GlcNAc(b1-4)]Man(a1-3)[GlcNAc(b1-4)][Neu5Ac(a2-6)Gal(b1-4)GlcNAc(b1-2)[Neu5Ac(a2-6)Gal(b1-4)GlcNAc(b1-6)]Man(a1-6)]Man(b1-4)GlcNAc(b1-4)GlcNAc", "how_it_was_run": "as §1"}, "[10]": {"molecular_target": "Neu5Ac(a2-6)Gal(b1-4)GlcNAc(b1-2)[Neu5Ac(a2-6)Gal(b1-4)GlcNAc(b1-4)]Man(a1-3)[GlcNAc(b1-4)][Neu5Ac(a2-6)Gal(b1-4)GlcNAc(b1-4)Man(a1-6)]Man(b1-4)GlcNAc(b1-4)GlcNAc", "how_it_was_run": "as §1"}, "[11]": {"molecular_target": "Neu5Ac(a2-6)Gal(b1-4)GlcNAc(b1-2)[Neu5Ac(a2-6)Gal(b1-4)GlcNAc(b1-6)]Man(a1-6)[Neu5Ac(a2-6)Gal(b1-4)GlcNAc(b1-2)Man(a1-3)][GlcNAc(b1-4)]Man(b1-4)GlcNAc(b1-4)GlcNAc", "how_it_was_run": "as §1"}, "[12]": {"molecular_target": "Neu5Ac(a2-6)Gal(b1-4)GlcNAc(b1-3)Gal(b1-3)GlcNAc", "how_it_was_run": "as §1"}, "[13]": {"molecular_target": "Neu5Ac(a2-6)Gal(b1-4)GlcNAc(b1-3)Gal(b1-4)GlcNAc", "how_it_was_run": "as §1"}, "[14]": {"molecular_target": "Neu5Ac(a2-6)Gal(b1-4)GlcNAc(b1-3)Gal(b1-4)GlcNAc(b1-2)Man(a1-3)[Neu5Ac(a2-6)Gal(b1-4)GlcNAc(b1-3)Gal(b1-4)GlcNAc(b1-2)Man(a1-6)]GalNAc", "how_it_was_run": "as §1"}, "[15]": {"molecular_target": "Neu5Ac(a2-6)Gal(b1-4)GlcNAc(b1-3)Gal(b1-4)GlcNAc(b1-3)Gal(b1-4)GlcNAc", "how_it_was_run": "as §1"}, "[16]": {"molecular_target": "Neu5Ac(a2-6)Gal(b1-4)GlcNAc(b1-3)Gal(b1-4)GlcNAc(b1-3)Gal(b1-4)GlcNAc(b1-2)Man(a1-3)[Neu5Ac(a2-6)Gal(b1-4)GlcNAc(b1-3)Gal(b1-4)GlcNAc(b1-3)Gal(b1-4)GlcNAc(b1-2)Man(a1-6)]GalNAc", "how_it_was_run": "as §1"}, "[17]": {"molecular_target": "Neu5Ac(a2-6)Gal(b1-4)GlcNAc(b1-3)Gal(b1-4)GlcNAc(b1-3)GalNAc", "how_it_was_run": "as §1"}, "[18]": {"molecular_target": "Neu5Ac(a2-6)Gal(b1-4)GlcNAc(b1-3)Gal(b1-4)GlcNAc(b1-3)[Neu5Ac(a2-6)Gal(b1-4)GlcNAc(b1-3)Gal(b1-4)GlcNAc(b1-6)]GalNAc", "how_it_was_run": "as §1"}, "[19]": {"molecular_target": "Neu5Ac(a2-6)Gal(b1-4)GlcNAc(b1-3)Gal(b1-4)GlcNAc(b1-6)[Gal(b1-3)]GalNAc", "how_it_was_run": "as §1"}, "[20]": {"molecular_target": "Neu5Ac(a2-6)Gal(b1-4)GlcNAc(b1-3)Gal(b1-4)[Fuc(a1-3)]GlcNAc(b1-3)Gal(b1-4)[Fuc(a1-3)]GlcNAc", "how_it_was_run": "as §1"}, "[21]": {"molecular_target": "Neu5Ac(a2-6)Gal(b1-4)GlcNAc(b1-3)GalNAc", "how_it_was_run": "as §1"}, "[22]": {"molecular_target": "Neu5Ac(a2-6)Gal(b1-4)GlcNAc(b1-3)[Neu5Ac(a2-6)Gal(b1-4)GlcNAc(b1-6)]GalNAc", "how_it_was_run": "as §1"}, "[23]": {"molecular_target": "Neu5Ac(a2-6)Gal(b1-4)GlcNAc(b1-6)GalNAc", "how_it_was_run": "as §1"}, "[24]": {"molecular_target": "Neu5Ac(a2-6)Gal(b1-4)GlcNAc(b1-6)[Gal(b1-3)GlcNAc(b1-3)]Gal(b1-4)Glc", "how_it_was_run": "as §1"}, "[25]": {"molecular_target": "Neu5Ac(a2-6)Gal(b1-4)GlcNAc(b1-6)[Gal(b1-3)]GalNAc", "how_it_was_run": "as §1"}, "[26]": {"molecular_target": "Neu5Ac(a2-6)Gal(b1-4)GlcNAc6S", "how_it_was_run": "as §1"}, "Neu5Ac(a2-6)GalNAc": {"molecular_target": "Neu5Ac(a2-6)GalNAc", "how_it_was_run": "as §1"}, "[27]": {"molecular_target": "Neu5Ac(a2-6)GalNAc(b1-4)GlcNAc", "how_it_was_run": "as §1"}, "[28]": {"molecular_target": "Neu5Ac(a2-6)GalNAc(b1-4)GlcNAc6S", "how_it_was_run": "as §1"}, "[29]": {"molecular_target": "Neu5Ac(a2-6)GlcNAc(b1-4)GlcNAc", "how_it_was_run": "as §1"}}, "note": "The other results are listed elsewhere or left out.", "data": [{"binder": "B1", "values": [{"measurement": "glycan array binding signal (z-score)", "setting": "[1]", "value": -0.577}, {"measurement": "glycan array binding signal (z-score)", "setting": "[2]", "value": -0.057}, {"measurement": "glycan array binding signal (z-score)", "setting": "[3]", "value": -0.2}, {"measurement": "glycan array binding signal (z-score)", "setting": "[4]", "value": 1.09}, {"measurement": "glycan array binding signal (z-score)", "setting": "[5]", "value": -0.713}, {"measurement": "glycan array binding signal (z-score)", "setting": "[6]", "value": -0.083}, {"measurement": "glycan array binding signal (z-score)", "setting": "[7]", "value": -0.28}, {"measurement": "glycan array binding signal (z-score)", "setting": "[8]", "value": 0.393}, {"measurement": "glycan array binding signal (z-score)", "setting": "[9]", "value": 0.464}, {"measurement": "glycan array binding signal (z-score)", "setting": "[10]", "value": 0}, {"measurement": "glycan array binding signal (z-score)", "setting": "[11]", "value": 0.203}, {"measurement": "glycan array binding signal (z-score)", "setting": "[12]", "value": -0.31}, {"measurement": "glycan array binding signal (z-score)", "setting": "[13]", "value": 0.45}, {"measurement": "glycan array binding signal (z-score)", "setting": "[14]", "value": -0.077}, {"measurement": "glycan array binding signal (z-score)", "setting": "[15]", "value": -0.047}, {"measurement": "glycan array binding signal (z-score)", "setting": "[16]", "value": 2.16}, {"measurement": "glycan array binding signal (z-score)", "setting": "[17]", "value": -0.22}, {"measurement": "glycan array binding signal (z-score)", "setting": "[18]", "value": -0.331}, {"measurement": "glycan array binding signal (z-score)", "setting": "[19]", "value": 0.129}, {"measurement": "glycan array binding signal (z-score)", "setting": "[20]", "value": -0.224}, {"measurement": "glycan array binding signal (z-score)", "setting": "[21]", "value": -0.734}, {"measurement": "glycan array binding signal (z-score)", "setting": "[22]", "value": -0.959}, {"measurement": "glycan array binding signal (z-score)", "setting": "[23]", "value": -0.146}, {"measurement": "glycan array binding signal (z-score)", "setting": "[24]", "value": 0.198}, {"measurement": "glycan array binding signal (z-score)", "setting": "[25]", "value": -0.61}, {"measurement": "glycan array binding signal (z-score)", "setting": "[26]", "value": 0.166}, {"measurement": "glycan array binding signal (z-score)", "setting": "Neu5Ac(a2-6)GalNAc", "value": -1.21}, {"measurement": "glycan array binding signal (z-score)", "setting": "[27]", "value": -0.178}, {"measurement": "glycan array binding signal (z-score)", "setting": "[28]", "value": -0.3}, {"measurement": "glycan array binding signal (z-score)", "setting": "[29]", "value": -0.584}]}]}
